In the assay the test system is HCoV-OC43. More on the design: species or system RD; HTS, protection from HCoV-OC43 induced cell death, luminescent cell viability (CellCounting-Lite 2.0), inhibition rate. The settings on record: 24 h post infection, 1 h compound pre-incubation, 10 µM, inhibitor.

Experimental findings from paper PMC12431657, “Discovery and mechanistic insights of dibenzoylmethane as a broad spectrum inhibitor of coronavirus” (PLOS Pathogens, 2025) are described below.

Structures can show the parent of a compound that is named as a salt. Where two headings read alike, the source gives them in different places. Hit rate of the full screen: of about 3,300 compounds, about 60 (2%) showed an effect of 50% or more. The list shows a part of the results.

In the case of `Oc1ccc(CC2NCCc3cc(O)c(O)cc32)cc1` (stereo not shown) [Higenamine (hydrochloride)], the “OC43 Inhibition rate” value is listed as 0.1%.
On the same count and under the same terms, as for `C/C=C(/C)C(=O)O` [Angelic acid], the figure is -0.3%; as for `CC1(C)CC[C@]2(C(=O)O)CC[C@]3(C)C(=CC[C@@H]4[C@@]5(C)CC[C@H](O[C@@H]6OC[C@H](O)[C@H](O)[C@H]6O[C@@H]6O[C@H](CO)[C@@H](O)[C@H](O)[C@H]6O)[C@@](C)(CO)[C@@H]5CC[C@]43C)[C@@H]2C1` [Cauloside C], -1.5%; as for `C=C[C@H]1[C@H](O[C@@H]2O[C@H](CO)[C@@H](O)[C@H](O)[C@H]2O)OC=C(C(=O)OC)[C@H]1CC=O` [Secologanin], -2.6%.
In the case of `C/C=C/C=C/C(=O)O` [Sorbic acid], where the note is “OC43 Inhibition rate, 24 h”, the “OC43 Inhibition rate” value is on record as -1.1%.
With `NCCc1cc(O)c(O)c(O)c1` [5-Hydroxydopamine hydrochloride], the “OC43 Inhibition rate” value came to 7.7%.
The same measure, in the same setting: the figure for `COc1c(CC=C(C)C)c(O)cc2oc(=O)c3c4ccc(O)cc4oc3c12` [Neoglycyrol] is 113.3%; for `O=Cc1cccc(O)c1` [3-Hydroxybenzaldehyde] it is 0.6%.
Still for that read-out and setting: the figure for `COc1cc2c(cc1OC)[C@H](C)NCC2` [Salsolidine] is 0.2%; for `NC(Cc1cccc(O)c1)C(=O)O` (racemic) [DL-m-Tyrosine] it is -0.3%; for `O=c1cc(-c2ccccc2)oc2cc(O[C@@H]3O[C@H](CO)[C@@H](O)[C@H](O)[C@H]3O)c(O)c(O)c12` [Oroxin A] it is -1%.
Still for that read-out and setting: as for `C=C(C)C(=O)Cc1c(OC)ccc2ccc(=O)oc12` [Murrayone], the figure is -0.4%.
With `C[Se]CC[C@H](N)C(=O)O` [Selenomethionine], the “OC43 Inhibition rate” value (OC43 Inhibition rate, 24 h) worked out at 1.2%.
As to `O=C(O)CCCCCCCCCCCCC(=O)O` [Tetradecanedioic acid], the “OC43 Inhibition rate” value is given as -1.6%.
On the same count and under the same terms, the figure for `O=c1cc(-c2ccc(O)cc2)oc2cc(O)cc(O)c12` [Apigenin] is 2%.
On the same count and under the same terms, as for `CCCCCCCCCCCCCCC(O)C(=O)O` (stereo not shown) [2-Hydroxypalmitic acid], the figure is 0.1%; as for `O=C1C[C@@H](c2ccc(O[C@@H]3O[C@H](CO)[C@@H](O)[C@H](O)[C@H]3O[C@H]3OC[C@@](O)(CO)[C@@H]3O)cc2)Oc2cc(O)ccc21` [Liquiritin apioside], -0.2%; as for `C=C(C)[C@H]1Cc2c(ccc3c2O[C@@H]2COc4cc(OC)c(OC)cc4[C@@H]2C3=O)O1` [Rotenone], -1.8%.
As to `O=c1cc(-c2ccccc2)oc2cc(O)cc(O[C@@H]3O[C@H](CO)[C@@H](O)[C@H](O)[C@H]3O)c12` [Toringin], the “OC43 Inhibition rate” value is listed as -0.6%.
Same read-out and setting: as for `CC(C)(O[C@@H]1O[C@H](CO)[C@@H](O)[C@H](O)[C@H]1O)[C@@H]1CC[C@](O)(CO)[C@H]2CC(=O)[C@@](C)(O)[C@@H]2C1` [Atractyloside A], the figure is 0%; as for `CC(C)=CCCC(C)CCO` (stereo not shown) [Citronellol], -0.8%; as for `CC1(C)CCC[C@](C)([C@H]2CC[C@]3(C)[C@@H]2[C@H](O)C[C@@H]2[C@@]4(C)CC[C@H](O)C(C)(C)[C@@H]4[C@@H](O)C[C@]23C)O1` [Panaxatriol], 12.5%.
On to `COc1cc2ccc(=O)oc2c(OC)c1OC` [Dimethylfraxetin], for which the “OC43 Inhibition rate” value is -0.5%.
The same measure, in the same setting: the figure for `CC1(C)COC(=O)C1O` (racemic) [DL-Pantolactone] is -0.5%; for `C=CCc1ccc(OC(C)=O)c(OC)c1` [Eugenol acetate] it is 1.2%; for `COc1cc2c(cc1CC=C(C)C)C(=O)C[C@@H](c1ccc(O)cc1)O2` [Bavachinin] it is 20.3%.
Take `CC(N)=O` [Acetamide]: the “OC43 Inhibition rate” value is -2.6%.
The same measure, in the same setting: the figure for `C/C=C(/C)C(=O)O[C@H]1[C@H](OC(C)=O)[C@@]2(CO)C(CC1(C)C)C1=CCC3[C@@]4(C)CC[C@H](O[C@@H]5O[C@H](C(=O)O)[C@@H](O[C@@H]6O[C@H](CO)[C@@H](O)[C@H](O)[C@H]6O)[C@H](O)[C@H]5O[C@@H]5O[C@H](CO)[C@@H](O)[C@H](O)[C@H]5O)[C@](C)(CO)C4CC[C@@]3(C)[C@]1(C)C[C@H]2O` (stereo partly shown) [Saponins] is -0.4%; for `CC(C)=CC[C@]12Oc3cc(O)c([C@H]4C=C(C)C[C@H](c5ccc(O)cc5O)[C@H]4C(=O)c4ccc(O)cc4O)c(O)c3C(=O)[C@@]1(O)Oc1cc(O)ccc12` [Sanggenon C] it is -9.1%; for `COc1ccc(-c2cc(=O)c3c(O)cc(O)cc3o2)cc1O` [Diosmetin] it is 2.2%.
As to `CC1(C)Oc2cc3oc(=O)ccc3cc2CC1O` (racemic) [(±)-Decursinol], the “OC43 Inhibition rate” value is -1%.
Still for that read-out and setting: the figure for `CCCCCCCCCC(C)O` (stereo not shown) [2-Undecanol] is 0.6%; for `OCC1CCCCO1` (stereo not shown) [2-Hydroxymethyltetrahydropyran] it is 0%.
On the same count and under the same terms, as for `CC(=O)N[C@@H](CC(C)C)C(=O)O` [N-Acetyl-L-leucine], the figure is 0.2%.
As for `C=CC[S+]([O-])C[C@H](N)C(=O)O` (stereo partly shown) [Alliin], the “OC43 Inhibition rate” value stood at 0%.
Same read-out and setting: as for `Nc1nc(=O)c2nc(CNc3ccc(C(=O)N[C@@H](CCC(=O)O)C(=O)O)cc3)cnc2[nH]1` [Folic acid], the figure is 0.4%.
Regarding `COc1cc(-c2cc(=O)c3c(O)c(OC)c(O)cc3o2)cc(O)c1OC` [5,7,3'-Trihydroxy-6,4',5'-trimethoxyflavone], the “OC43 Inhibition rate” value came to 0%.
For `O=C(O)c1c[nH]c2ccccc12` [Indole-3-carboxylic acid], the “OC43 Inhibition rate” value was -1.3%.
Take `O=C(O[C@@H]1Cc2c(O)cc(O)cc2O[C@@H]1c1cc(=O)c(O)c2c(O)c(O)cc([C@H]3Oc4cc(O)cc(O)c4C[C@H]3O)c2c1)c1cc(O)c(O)c(O)c1` [Theaflavin-3-gallate]: the “OC43 Inhibition rate” value (OC43 Inhibition rate, 24 h) is on record as -0.8%.
Take `CCCCCCCC(=O)O[C@H](CC(=O)[O-])C[N+](C)(C)C` [L-Octanoylcarnitine]: the “OC43 Inhibition rate” value is recorded as -0.3%.
The same measure, in the same setting: as for `CC(C)(O)[C@@H]1Cc2cc3ccc(=O)oc3cc2O1` [S-(+)-Marmesin], the figure is -0.1%; as for `C=C1CC[C@]2(C)CC[C@]3(C)[C@H](CC[C@@H]4[C@@]5(C)CC[C@H](O)C(C)(C)[C@@H]5CC[C@]43C)[C@H]2[C@@H]1C` [Taraxasterol], 9.1%; as for `COc1ccc(C=O)c(O)c1` [2-Hydroxy-4-methoxybenzaldehyde], 2.9%.
Still for that read-out and setting: the figure for `Nc1cc(C(=O)O)ccc1O` [3-Amino-4-hydroxybenzoic acid] is -0.5%; for `O=C(O)CCCCCCC(=O)O` [Suberic acid] it is -1.4%.
Same read-out and setting: as for `OC[C@H]1O[C@@](CO)(OC[C@@]2(OC[C@@]3(OC[C@@]4(OC[C@@]5(O[C@H]6O[C@H](CO)[C@@H](O)[C@H](O)[C@H]6O)O[C@H](CO)[C@@H](O)[C@@H]5O)O[C@H](CO)[C@@H](O)[C@@H]4O)O[C@H](CO)[C@@H](O)[C@@H]3O)O[C@H](CO)[C@@H](O)[C@@H]2O)[C@@H](O)[C@@H]1O` [1,1,1,1-Kestohexaose], the figure is 2.3%; as for `COc1cc(-c2coc3cc(O)c(OC)c(O)c3c2=O)cc(O)c1OC` [Irigenin], -0.2%.
In the case of `O=Cc1ccc(CO)o1` [5-Hydroxymethylfurfural], the “OC43 Inhibition rate” value is -0.2%.
Same read-out and setting: the figure for `CCCCCCc1cccs1` [2-Hexylthiophene] is 1.7%; for `O=C(/C=C/c1ccc(O)c(O)c1)O[C@H]1[C@H](O)C[C@](O)(C(=O)O)C[C@H]1OC(=O)/C=C/c1ccc(O)c(O)c1` [3,4-Dicaffeoylquinic acid] it is 6.5%.
With `CC1(C)Oc2cc3oc(-c4cc(O)cc(O[C@@H]5OC[C@@H](O)[C@H](O)[C@H]5O)c4)cc3cc2CC1O` (stereo partly shown) [Mulberroside C], the “OC43 Inhibition rate” value came to 5.8%.
On to `CC/C=C\C/C=C\C/C=C\CCCCCCCC(=O)OCC` [Ethyl linolenate], for which the “OC43 Inhibition rate” value is -0.4%.
As to `N[C@@H](CCSSCC[C@H](N)C(=O)O)C(=O)O` [L-Homocystine], the “OC43 Inhibition rate” value is reported as -1.2%.
The same measure, in the same setting: the figure for `Nc1ncnc2c1ncn2[C@H]1C[C@H](O)[C@@H](COP(=O)(O)OP(=O)(O)OP(=O)(O)O)O1` [2'-Deoxyadenosine-5'-triphosphate (trisodium)] is 9.3%; for `C[C@H](CC[C@@H](O[C@@H]1O[C@H](CO[C@@H]2O[C@H](CO)[C@@H](O)[C@H](O)[C@H]2O)[C@@H](O)[C@H](O)[C@H]1O)C(C)(C)O)[C@H]1CC[C@@]2(C)[C@@H]3CC=C4[C@@H](CC[C@H](O)C4(C)C)[C@]3(C)[C@H](O)C[C@]12C` [Mogroside IIA1] it is -0.4%; for `COc1cc(/C=C/C(O)=C/C(=O)/C=C/c2ccc(O)cc2)ccc1O` [Demethoxycurcumin] it is 6.8%.
The same measure, in the same setting: as for `CC(=O)OC[C@]12[C@H](OC(C)=O)[C@H](OC(C)=O)[C@@H]3[C@@H](OC(C)=O)[C@@]14O[C@@]3(C)COC(=O)c1cccnc1CCC(C)C(=O)O[C@@H]([C@H](OC(=O)c1ccco1)[C@@H]2OC(C)=O)[C@]4(C)O` (stereo partly shown) [Wilforgine], the figure is 0.7%.
Consider `CN1CCC=C(C(=O)O)C1` [Arecaidine (hydrochloride)], for which, under “OC43 Inhibition rate, 24 h”, the “OC43 Inhibition rate” value is recorded as -0.1%.
As for `COc1cc(C[C@H](C)[C@H](C)Cc2ccc3c(c2)OCO3)ccc1O` [Macelignan], the “OC43 Inhibition rate” value came to 2%.
On the same count and under the same terms, as for `COC(=O)C1=CO[C@@H](O[C@@H]2O[C@H](CO)[C@@H](O)[C@H](O)[C@H]2O)[C@@H]2C(CO)=C[C@H](O)[C@H]12` [Methyl deacetylasperulosidate], the figure is -2.3%.
Consider `N[C@@H](CS)C(=O)O` [L-Cysteine], for which the “OC43 Inhibition rate” value (OC43 Inhibition rate, 24 h) is 0.9%.
Same read-out and setting: as for `O=C(O)/C=C/c1ccccc1` [Cinnamic acid], the figure is 1.6%.
`COc1cccc(-c2oc3ccccc3c(=O)c2O)c1` [3'-Methoxyflavonol]: the “OC43 Inhibition rate” value is listed as -2%.
On the same count and under the same terms, the figure for `C[C@@H]1O[C@@H](Oc2c(-c3cc(O)c(O)c(O)c3)oc3cc(O)cc(O)c3c2=O)[C@H](O)[C@H](O)[C@H]1O` [Myricitrin] is 0.2%.
